Source: the supplement of paper PMC11348887
Structures can show the parent of a compound that is named as a salt. This is one part of the list. Small differences around the control level are noise.

What was measured:
Details in all cases: 5 µM; treatment: days 7-14 after plating, readout day 21
[1] = tested on: hPSC-derived cortical neurons (WA09); assay: nucleus area z-score vs screen plate; higher = larger nuclei (more mature)
[2] = tested on: hPSC-derived cortical neurons (WA09); assay: total neurite length per nucleus (MAP2) z-score; higher = more neurite growth
[3] = tested on: hPSC-derived cortical neurons (WA09); assay: nucleus roundness z-score vs screen plate; higher = rounder nuclei (more mature)
[4] = tested on: hPSC-derived cortical neurons (WA09); assay: KCl-induced FOS+/EGR-1+ double-positive nuclei fraction z-score (KCl minus unstimulated); higher = stronger activity-induced IEG response

| SMILES | nucleus area z-score [1] | total neurite length per nucleus (z-score) [2] | nucleus roundness z-score [3] | KCl-induced FOS+/EGR-1+ double-positive nuclei fraction z-score [4] |
| --- | --- | --- | --- | --- |
| CN(C)C(=O)Oc1cccc([N+](C)(C)C)c1 [Neostigmine Bromide] | 0.256 | -0.021 | -0.687 | 0.167 |
| O=C(CC1NCCCC1O)Cn1cnc2cc(Br)c(Cl)cc2c1=O (centres undefined) [Halofuginone] | -17.4 | -6.22 | -0.0262 | 2.69 |
| C=C1C[C@@H]2[C@H](CC[C@]3(C)C(=O)CC[C@@H]23)[C@@]2(C)C=CC(=O)C=C12 [Exemestane] | 2.35 | 0.49 | 0.782 | 1.66 |
| CC(C)(C)c1cc(C=C(C#N)C#N)cc(Br)c1O | 1.29 | 1.32 | 0.43 | 1.28 |
| CC(=O)OC1CN2CCC1CC2 (centres undefined) [Aceclidine HCl] | -0.806 | 0.528 | 1.26 | 0.291 |
| O=C(O)CNC(=O)C1C(=O)N(C2CCCCC2)C(=O)N(C2CCCCC2)C1=O | 0.734 | 0.833 | 0.947 | 1.61 |
| Fc1cc(F)c2c(c1)[C@H]1C=CC[C@H]1C(c1cccnc1)N2 (some centres undefined) [Golgicide A] | -4.77 | -0.644 | -6.98 | -0.213 |
| Cc1cccc(C)c1NC(=O)CN1CCCC1=O [Nefiracetam] | 0.505 | 0.161 | 0.621 | -0.481 |
| CC1(C)CC(O)CC(C)(C)N1[O] [Tempol] | -0.0821 | -0.0406 | 0.176 | -0.387 |
| C/C(=C\c1csc(C)n1)[C@@H]1C[C@@H]2O[C@@H]2CCC[C@H](C)[C@H](O)[C@@H](C)C(=O)C(C)(C)[C@@H](O)CC(=O)O1 [Epothilone A] | -0.507 | 1.51 | -0.771 | -1.82 |
| C[N+]1(C)[C@@H]2C[C@@H](OC(=O)[C@H](CO)c3ccccc3)C[C@H]1[C@@H]1O[C@@H]12 [Methscopolamine] | 1.12 | -0.532 | 0.167 | 0.381 |

A few values from the list.
total neurite length per nucleus (z-score) [2], `CC1(C)CC(O)CC(C)(C)N1[O]` [Tempol] is entered as -0.0406
nucleus roundness z-score [3], `CN(C)C(=O)Oc1cccc([N+](C)(C)C)c1` [Neostigmine Bromide] is entered as -0.687
